Laboratory results published in PubChem BioAssay AID624297 (National Center for Advancing Translational Sciences (NCATS), 2012).
Among all 340,000 compounds or so, about 6,200 (1.8%) were called active. Inconclusive results, whose numbers are uncertain, are shown with a selection of clear calls. Calls come from the whole dose curve; as a rule, active = well fitted activation curve with a large enough effect; inconclusive = small, poorly fitted or top-dose-only effect; inactive = no such curve, though single readings can be large or run the other way. Where the call is inconclusive, the potency comes from a doubtful curve fit.

Assay: A quantitative high throughput screen for small molecules that induce DNA re-replication in SW480 colon adenocarcinoma cells. For re-replication activation: % of control where 0% means no effect. Note: nearly all actives have a fitted effect of over 55% in size.
Settings: Hoechst DNA content imaging, 48 h; re-replication activation: at 46.1 µM (top of the series) unless noted
Outline: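 Per well, 250 cells were exposed to pinned compound for 48 hr. Nuclear DNA was visualised with Hoechst (40 min, 37 C) and total object intensity recorded by fluorescence scanning.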
Potency is the fitted concentration of half-maximal effect.

SMILES | Potency | re-replication activation
COc1ccc(Oc2ccc(/C=C/C(=O)c3ccc(O)cc3)cc2[N+](=O)[O-])cc1 | active: 7.31 µM | 
CCOC(=O)C1(CC2CC2)CCN(Cc2ccc(OC)cc2F)CC1 | inconclusive: 7.31 µM [activator, single point] | 
COc1ccc(OC)c(N(CC(=O)N2CCC(C)CC2)S(=O)(=O)c2ccc(OC)c(OC)c2)c1 |  | inactive: 10.7%
Cc1[nH]n(-c2ccccc2)c(=O)c1/C=N/N(C)c1ccccc1 | inconclusive: 20.6 µM [activator, partial curve, poor fit] | 
O=c1cc(CN2CCN(C/C=C/c3ccccc3)CC2)c2cc(O)ccc2o1 | inconclusive: 18.4 µM [activator, single point] | 
COc1cccc(NC(=O)c2cn(C)c(=O)c3cc(OC)c(OC)cc23)c1 | inconclusive: 29.1 µM [activator, single point] | 
COC(=O)Cn1cc(/C=C/[N+](=O)[O-])c2ccccc21 | inconclusive: 29.1 µM [activator, single point] | 
OC(CNc1ccccc1)COc1ccc(OCC(O)CNc2ccccc2)cc1 (stereo not given) | inconclusive: 25.9 µM [activator, single point] | 
CCC(C)(C)NC(=S)Nc1ccc(-c2nc3ccc(C)cc3s2)cc1 | inconclusive: 20.6 µM [activator, partial curve, poor fit] | 
Cc1nnc(N2CCN(c3ccccc3)CC2)[nH]c1=O | inconclusive: 29.1 µM [activator, single point] | 
CCOC(=O)C1CCN(S(=O)(=O)c2ccc3c(c2)CCN3C(C)=O)CC1 | inconclusive: 11.6 µM [activator, partial curve, poor fit] | 
CCCCC/C=C\C[C@H](O)/C=C/c1cccc(C[C@H](O)CCCCO)n1 | inconclusive: 23.1 µM [activator, single point] | 
COc1ccc(-c2cc(CNC(=O)CCl)on2)cc1 | inconclusive: 29.1 µM [activator, single point] | 
CCOC(=O)c1c(NC(=S)Nc2ccc(Cl)cc2)sc2c1CCN(C)C2 | inconclusive: 32.6 µM [activator, partial curve, poor fit] | 
Cc1cc(O)c2c(c1)C(=O)[C@@]13Oc4c5c(c(O)c6c(O)cc(C)cc46)C(=O)C[C@H](O)[C@H]5[C@@H]1[C@@H](O)CC(=O)C3=C2O | inconclusive: 0.731 µM [activator, full curve, poor fit] | 
Cc1cc2oc(C(=O)NCc3ccccc3)cc(=O)c2cc1C | active: 8.2 µM | 
Cc1ccc2[nH]c(=O)c(CN(CC3COCCO3)C(=O)Nc3ccccc3F)cc2c1 (stereo not given) | inconclusive: 23.1 µM [activator, single point] | 
Cc1ccsc1/C=C1\Oc2cc(OCC(=O)c3ccccc3)ccc2C1=O |  | inactive: -51.2%
CC(Oc1ccccc1)C(=O)N=C1SC2CS(=O)(=O)CC2N1c1ccc(F)cc1 (stereo not given) | inconclusive: 6.51 µM [activator, single point] | 
Cc1ccc(NC(=S)NCCSc2ccc(Cl)cc2)c(C)c1 | inconclusive: 29.1 µM [activator, single point] | 

One compound at a time, from the list above:
`Cc1ccc2[nH]c(=O)c(CN(CC3COCCO3)C(=O)Nc3ccccc3F)cc2c1` (stereo not given) as listed: Potency: inconclusive: 23.1 µM [activator, single point]
`Cc1cc(O)c2c(c1)C(=O)[C@@]13Oc4c5c(c(O)c6c(O)cc(C)cc46)C(=O)C[C@H](O)[C@H]5[C@@H]1[C@@H](O)CC(=O)C3=C2O` as listed: Potency: inconclusive: 0.731 µM [activator, full curve, poor fit]

Next results follow:

SMILES | Potency | re-replication activation
Cc1ccc2c(c1)C(=O)C(=O)N2CC(=O)Nc1ccc(N2CCOCC2)cc1 |  | inactive: -1.62%
O=C1C=CC(=Nc2ccc3c(c2)Cc2cc(F)ccc2-3)O1 | inconclusive: 18.4 µM [activator, single point] | 
CCCC(O)(CCC)C(=O)NN(C(=O)CCl)c1cccc(C)c1 | inconclusive: 20.6 µM [activator, single point] | 
CC(C)N1CCC2(CC1)N=C(c1ccc3c(c1)OCO3)CC(c1cc(Cl)ccc1O)N2 (stereo not given) | inconclusive: 29.1 µM [activator, single point] | 
Oc1cc2c(c(Cl)c1O)CCNCC2c1ccccc1 (stereo not given) | inconclusive: 31.6 µM [activator, single point] | 
Cc1cc2ccccn2c1C(=O)c1ccccc1Br | inconclusive: 18.4 µM [activator, single point] | 
Cc1csc(N/N=C/c2ccc(O)c([N+](=O)[O-])c2)n1 |  | inactive: -6.15%
CN(C)S(=O)(=O)c1ccc(NC(=O)Cc2ccc(S(=O)(=O)N3CCOCC3)s2)cc1 | inconclusive: 0.0517 µM [activator, full curve, poor fit] | 
Cc1ccc(C(=O)OCn2ncc(Cl)c(Cl)c2=O)cc1 | inconclusive: 10.3 µM [activator, partial curve, poor fit] | 
COc1ccc2c(c1)CCCN2S(=O)(=O)c1ccc(Cl)cc1 | inconclusive: 18.4 µM [activator, single point] | 
Cc1ccc(C)c(NS(=O)(=O)c2ccccc2C)c1 |  | inactive: -0.436%
CCOC(=O)c1oc2ccccc2c1NC(=O)c1cccc(OC)c1 | inconclusive: 32.6 µM [activator, partial curve, poor fit] | 
Cc1ccc(/C=C(/C#N)C(=O)NC(C)c2ccccc2)o1 (stereo not given) |  | inactive: 5.67%
Cc1cc(C)nc(NC(=S)Nc2cccc(Cl)c2Cl)c1 | inconclusive: 7.31 µM [activator, partial curve, poor fit] | 
CC(C)(C)N1C(=O)[C@H]2[C@@H](c3ccc(Br)cc3)N3C(=O)N(c4ccc(Br)cc4)C(=O)[C@@]3(Cc3ccccc3)[C@H]2C1=O |  | inactive: -13.3% [at 9.22 µM]
COc1ccccc1/C=N/NC(=O)c1cc2c(ccc3ccccc32)o1 | inconclusive: 29.1 µM [activator, single point] | 
Cc1cc(O)c(C(C)C)cc1N=Cc1ccc([N+](=O)[O-])cc1 | active: 18.4 µM | 
O=C1C(=O)N(Cc2cccc([N+](=O)[O-])c2)c2ccccc21 | inconclusive: 7.31 µM [activator, partial curve, poor fit] | 
O=C(C[C@H]1C[C@H](C(=O)N2CCCCC2)[C@@]2(CCc3ccccc3)c3[nH]c4cc(-c5ccco5)ccc4c3CCN2C1=O)NCCN1CCOCC1 | inconclusive: 1.84 µM [activator, partial curve] | 
CC1CCC(=NNc2ccc(C(F)(F)F)cc2[N+](=O)[O-])CC1 (stereo not given) | inconclusive: 0.13 µM [activator, full curve, poor fit] | 
